Data as given in the supplement of paper PMC10849652.
This is one part of the list. Residues, ends and D or L forms follow the SMILES beside them. *: point of attachment. Cbz = O=C(OCc1ccccc1)*

By UniProt entry, the sequences of proteins in these tests, tags left out. Where a name states a change or a piece, a line headed by the entry shows the natural chain unless it says otherwise.
UniProt Q12894: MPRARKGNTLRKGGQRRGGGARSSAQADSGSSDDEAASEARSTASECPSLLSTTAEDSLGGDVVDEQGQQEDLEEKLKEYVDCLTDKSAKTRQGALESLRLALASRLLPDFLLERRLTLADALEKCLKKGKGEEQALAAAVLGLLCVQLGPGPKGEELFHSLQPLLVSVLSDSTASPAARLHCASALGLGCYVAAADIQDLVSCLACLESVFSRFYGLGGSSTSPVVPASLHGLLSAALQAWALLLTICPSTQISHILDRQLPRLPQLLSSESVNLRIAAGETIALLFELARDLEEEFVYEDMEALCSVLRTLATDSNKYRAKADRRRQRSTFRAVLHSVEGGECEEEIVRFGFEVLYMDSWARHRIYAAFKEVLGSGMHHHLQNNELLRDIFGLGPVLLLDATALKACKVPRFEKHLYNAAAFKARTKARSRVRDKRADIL
UniProt P05161, whole entry, looked up: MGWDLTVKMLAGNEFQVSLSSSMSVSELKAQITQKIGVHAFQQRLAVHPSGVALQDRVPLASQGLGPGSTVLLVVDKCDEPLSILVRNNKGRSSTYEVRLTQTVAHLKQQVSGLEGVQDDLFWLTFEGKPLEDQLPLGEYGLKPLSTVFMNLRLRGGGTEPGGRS
UniProt Q9NPH2: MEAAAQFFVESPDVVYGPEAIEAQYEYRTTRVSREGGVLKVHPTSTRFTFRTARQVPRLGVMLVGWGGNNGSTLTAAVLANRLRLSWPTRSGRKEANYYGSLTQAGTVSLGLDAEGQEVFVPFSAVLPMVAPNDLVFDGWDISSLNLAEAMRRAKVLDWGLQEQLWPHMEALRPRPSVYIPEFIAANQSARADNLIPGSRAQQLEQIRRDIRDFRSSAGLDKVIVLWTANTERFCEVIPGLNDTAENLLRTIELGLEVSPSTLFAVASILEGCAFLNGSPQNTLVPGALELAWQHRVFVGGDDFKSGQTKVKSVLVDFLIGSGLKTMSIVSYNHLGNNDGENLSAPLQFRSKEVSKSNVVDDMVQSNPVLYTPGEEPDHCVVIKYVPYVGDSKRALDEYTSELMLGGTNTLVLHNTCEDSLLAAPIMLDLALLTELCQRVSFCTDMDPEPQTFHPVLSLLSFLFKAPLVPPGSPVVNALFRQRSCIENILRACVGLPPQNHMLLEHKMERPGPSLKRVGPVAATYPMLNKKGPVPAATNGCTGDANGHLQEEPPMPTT
UniProt Q9NVR2, whole entry, looked up: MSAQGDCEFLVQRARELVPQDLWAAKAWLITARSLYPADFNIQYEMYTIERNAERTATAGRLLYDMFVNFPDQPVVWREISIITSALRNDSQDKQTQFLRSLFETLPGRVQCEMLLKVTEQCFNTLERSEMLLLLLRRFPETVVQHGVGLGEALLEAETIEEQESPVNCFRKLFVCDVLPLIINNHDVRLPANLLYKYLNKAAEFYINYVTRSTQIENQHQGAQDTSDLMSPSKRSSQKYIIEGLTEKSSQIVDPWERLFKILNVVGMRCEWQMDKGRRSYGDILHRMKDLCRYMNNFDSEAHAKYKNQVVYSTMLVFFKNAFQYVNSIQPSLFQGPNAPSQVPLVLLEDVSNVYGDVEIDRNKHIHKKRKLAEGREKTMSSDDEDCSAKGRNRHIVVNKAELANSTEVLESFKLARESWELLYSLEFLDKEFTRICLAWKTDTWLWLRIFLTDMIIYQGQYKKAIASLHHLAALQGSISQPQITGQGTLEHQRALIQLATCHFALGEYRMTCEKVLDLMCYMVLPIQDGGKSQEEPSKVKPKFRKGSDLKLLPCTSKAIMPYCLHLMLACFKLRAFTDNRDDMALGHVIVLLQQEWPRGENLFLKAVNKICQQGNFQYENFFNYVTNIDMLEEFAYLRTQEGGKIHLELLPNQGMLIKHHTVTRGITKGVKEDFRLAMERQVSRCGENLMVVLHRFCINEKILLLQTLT
UniProt Q9ULR0: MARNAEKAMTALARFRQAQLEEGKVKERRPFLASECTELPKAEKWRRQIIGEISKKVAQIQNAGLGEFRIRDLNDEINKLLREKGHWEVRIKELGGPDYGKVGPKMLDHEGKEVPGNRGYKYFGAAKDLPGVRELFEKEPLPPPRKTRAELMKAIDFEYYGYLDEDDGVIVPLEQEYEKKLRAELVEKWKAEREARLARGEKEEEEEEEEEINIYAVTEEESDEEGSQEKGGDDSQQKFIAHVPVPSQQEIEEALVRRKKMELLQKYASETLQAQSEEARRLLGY
UniProt Q96J02: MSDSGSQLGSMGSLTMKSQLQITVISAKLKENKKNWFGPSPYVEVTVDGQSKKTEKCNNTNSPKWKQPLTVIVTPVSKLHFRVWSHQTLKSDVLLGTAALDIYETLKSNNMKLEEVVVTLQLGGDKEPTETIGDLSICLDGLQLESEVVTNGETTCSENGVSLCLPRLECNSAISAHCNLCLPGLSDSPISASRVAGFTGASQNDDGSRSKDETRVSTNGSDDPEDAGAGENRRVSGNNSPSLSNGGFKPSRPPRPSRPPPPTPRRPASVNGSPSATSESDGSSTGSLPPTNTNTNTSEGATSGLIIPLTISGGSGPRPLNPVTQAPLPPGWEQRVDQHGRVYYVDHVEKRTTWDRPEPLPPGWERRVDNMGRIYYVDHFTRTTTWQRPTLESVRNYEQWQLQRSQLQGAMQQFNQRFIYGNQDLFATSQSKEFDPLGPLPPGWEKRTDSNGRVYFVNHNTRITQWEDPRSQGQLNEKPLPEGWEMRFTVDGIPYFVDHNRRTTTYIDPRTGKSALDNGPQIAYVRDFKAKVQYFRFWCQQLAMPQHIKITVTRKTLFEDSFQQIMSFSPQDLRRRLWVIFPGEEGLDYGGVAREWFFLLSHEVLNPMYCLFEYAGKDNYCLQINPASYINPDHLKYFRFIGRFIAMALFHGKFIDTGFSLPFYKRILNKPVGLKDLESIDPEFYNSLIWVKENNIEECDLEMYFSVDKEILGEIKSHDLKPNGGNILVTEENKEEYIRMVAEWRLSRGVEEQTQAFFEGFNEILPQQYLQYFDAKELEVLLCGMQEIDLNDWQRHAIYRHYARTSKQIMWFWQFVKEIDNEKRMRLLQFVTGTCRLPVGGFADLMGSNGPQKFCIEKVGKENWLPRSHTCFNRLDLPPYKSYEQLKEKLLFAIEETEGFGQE
UniProt Q96AB3: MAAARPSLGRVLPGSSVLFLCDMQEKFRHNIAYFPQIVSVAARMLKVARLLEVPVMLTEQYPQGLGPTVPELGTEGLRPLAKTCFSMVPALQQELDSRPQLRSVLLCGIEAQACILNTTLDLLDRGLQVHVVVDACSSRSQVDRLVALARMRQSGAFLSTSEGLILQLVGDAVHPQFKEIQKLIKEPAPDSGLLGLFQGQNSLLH
UniProt Q8TEX9: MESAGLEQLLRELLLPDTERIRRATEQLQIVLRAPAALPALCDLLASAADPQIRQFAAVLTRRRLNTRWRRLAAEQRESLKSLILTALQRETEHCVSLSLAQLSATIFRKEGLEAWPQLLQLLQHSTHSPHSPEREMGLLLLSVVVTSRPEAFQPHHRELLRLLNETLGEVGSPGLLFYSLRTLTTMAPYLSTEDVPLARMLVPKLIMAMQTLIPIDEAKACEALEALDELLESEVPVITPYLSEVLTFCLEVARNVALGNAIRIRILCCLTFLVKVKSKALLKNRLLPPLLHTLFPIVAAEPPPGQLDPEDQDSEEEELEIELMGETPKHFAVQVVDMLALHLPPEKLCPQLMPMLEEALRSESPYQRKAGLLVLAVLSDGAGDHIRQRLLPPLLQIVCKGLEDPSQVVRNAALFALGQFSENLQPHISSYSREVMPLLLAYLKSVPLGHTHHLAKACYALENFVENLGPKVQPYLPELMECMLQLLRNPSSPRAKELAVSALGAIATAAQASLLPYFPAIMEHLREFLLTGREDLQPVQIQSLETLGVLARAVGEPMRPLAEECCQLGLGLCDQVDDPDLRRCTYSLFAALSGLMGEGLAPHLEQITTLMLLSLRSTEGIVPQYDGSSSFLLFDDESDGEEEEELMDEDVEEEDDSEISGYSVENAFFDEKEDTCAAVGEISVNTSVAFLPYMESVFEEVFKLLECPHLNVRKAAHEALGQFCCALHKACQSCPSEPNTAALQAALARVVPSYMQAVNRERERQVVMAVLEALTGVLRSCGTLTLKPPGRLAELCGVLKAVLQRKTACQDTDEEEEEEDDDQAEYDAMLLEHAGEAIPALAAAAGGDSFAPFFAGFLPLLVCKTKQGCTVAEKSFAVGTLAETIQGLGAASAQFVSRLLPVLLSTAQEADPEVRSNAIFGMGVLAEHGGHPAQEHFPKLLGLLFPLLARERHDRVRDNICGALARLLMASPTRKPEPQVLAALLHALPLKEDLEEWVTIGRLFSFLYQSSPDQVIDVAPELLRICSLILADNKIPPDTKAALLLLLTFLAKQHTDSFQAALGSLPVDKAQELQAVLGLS
UniProt P46940, whole entry, looked up: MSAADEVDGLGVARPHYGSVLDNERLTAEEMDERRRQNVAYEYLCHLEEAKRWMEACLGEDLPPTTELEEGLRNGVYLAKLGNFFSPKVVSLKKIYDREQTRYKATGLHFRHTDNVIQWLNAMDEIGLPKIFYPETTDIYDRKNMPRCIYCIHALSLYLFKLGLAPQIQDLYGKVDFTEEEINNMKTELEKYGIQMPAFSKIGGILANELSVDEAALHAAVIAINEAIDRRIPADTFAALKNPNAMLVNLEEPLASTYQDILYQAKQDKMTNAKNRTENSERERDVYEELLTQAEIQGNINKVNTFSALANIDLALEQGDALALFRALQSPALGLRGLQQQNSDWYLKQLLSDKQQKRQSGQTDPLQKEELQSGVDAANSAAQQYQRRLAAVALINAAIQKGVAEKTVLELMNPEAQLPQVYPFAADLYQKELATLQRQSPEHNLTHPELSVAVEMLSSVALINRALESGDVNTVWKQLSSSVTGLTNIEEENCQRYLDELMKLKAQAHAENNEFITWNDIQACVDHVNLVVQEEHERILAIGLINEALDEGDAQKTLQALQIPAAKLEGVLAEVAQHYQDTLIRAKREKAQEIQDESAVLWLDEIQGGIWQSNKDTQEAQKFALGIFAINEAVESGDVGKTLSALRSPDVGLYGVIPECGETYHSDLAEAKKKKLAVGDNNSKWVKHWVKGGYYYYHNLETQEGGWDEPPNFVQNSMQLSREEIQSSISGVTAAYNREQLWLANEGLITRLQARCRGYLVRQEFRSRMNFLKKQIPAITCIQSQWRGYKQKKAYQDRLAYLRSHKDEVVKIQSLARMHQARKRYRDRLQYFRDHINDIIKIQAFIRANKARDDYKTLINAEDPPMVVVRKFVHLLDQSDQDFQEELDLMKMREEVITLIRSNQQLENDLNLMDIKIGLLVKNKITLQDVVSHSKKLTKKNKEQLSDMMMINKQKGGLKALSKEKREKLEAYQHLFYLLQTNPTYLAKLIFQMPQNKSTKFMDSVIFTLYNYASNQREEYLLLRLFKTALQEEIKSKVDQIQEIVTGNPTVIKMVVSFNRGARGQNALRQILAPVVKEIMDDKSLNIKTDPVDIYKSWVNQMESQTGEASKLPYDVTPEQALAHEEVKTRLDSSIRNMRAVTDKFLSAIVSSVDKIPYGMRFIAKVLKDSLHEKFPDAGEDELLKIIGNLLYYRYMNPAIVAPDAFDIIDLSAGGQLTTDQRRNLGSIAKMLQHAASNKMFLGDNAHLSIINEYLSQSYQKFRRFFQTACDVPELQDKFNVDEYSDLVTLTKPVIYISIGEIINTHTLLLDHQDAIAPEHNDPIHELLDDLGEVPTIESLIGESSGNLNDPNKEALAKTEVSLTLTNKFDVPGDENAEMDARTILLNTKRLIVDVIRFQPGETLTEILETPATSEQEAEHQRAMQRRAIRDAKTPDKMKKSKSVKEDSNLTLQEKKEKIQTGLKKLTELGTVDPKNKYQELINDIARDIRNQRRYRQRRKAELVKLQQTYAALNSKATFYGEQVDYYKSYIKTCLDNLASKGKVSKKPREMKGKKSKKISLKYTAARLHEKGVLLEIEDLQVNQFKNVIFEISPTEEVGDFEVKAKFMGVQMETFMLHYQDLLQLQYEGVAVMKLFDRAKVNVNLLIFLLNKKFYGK
UniProt Q9NWZ3, whole entry, looked up: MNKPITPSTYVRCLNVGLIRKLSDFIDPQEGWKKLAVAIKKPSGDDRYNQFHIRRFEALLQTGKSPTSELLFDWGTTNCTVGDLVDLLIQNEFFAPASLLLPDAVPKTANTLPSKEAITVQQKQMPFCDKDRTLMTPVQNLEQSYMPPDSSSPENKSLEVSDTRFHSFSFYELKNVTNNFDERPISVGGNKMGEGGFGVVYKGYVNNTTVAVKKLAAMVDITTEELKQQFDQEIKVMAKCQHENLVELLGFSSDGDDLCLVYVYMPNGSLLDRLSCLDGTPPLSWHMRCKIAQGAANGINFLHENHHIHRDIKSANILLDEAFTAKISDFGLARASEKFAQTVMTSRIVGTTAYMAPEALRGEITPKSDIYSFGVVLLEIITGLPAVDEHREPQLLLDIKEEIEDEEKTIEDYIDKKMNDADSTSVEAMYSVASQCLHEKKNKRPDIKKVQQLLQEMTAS

How the values were obtained:
Assay in all cases: log2 fold change, soluble protein after heating vs DMSO (PISA); higher = thermal stabilisation; K562 cells, 10 uM, 30 min; active = over 0.2 and 3.5 SD of the protein, either way, in both replicates (recomputed)
[1] = compound: C#Cc1cccc(Nc2ncnc3cc(OCCOC)c(OCCOC)cc23)c1 [erlotinib]
Procedure, shortened: (§1)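 Thermal stability values are relative to control samples and come from duplicates. They are expressed as log2 fold changes. For measurement, K562 cells (2×10^6 cells/mL) received 10 μM compound for 30 min, and aliquots were heated for 3 min over 48°C-58°C, pooled, and extracted at 4°C in PBS with 0.5% NP-40. Soluble protein, the supernatant after 21,000xg for 90 min, was quantified by TMTpro 16plex LC-MS/MS with equalised channel sums.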

[2] = compound: C/C(=N\NC(=O)C1=CC(=CC=C1)S(=O)(=O)N2CCOCC2)/C3=C(C=CC(=C3)Cl)O
Procedure, shortened: as §1

[3] = compound: C1=CC(=C(C=C1Cl)C2=NC3=NC=CN=C3C(=N2)NC4=CC=NC=C4)F
Procedure, shortened: as §1

[4] = compound: C1=CC(=CC=C1C2=NC3=C(N2)C=C(C=C3)C(=O)N)OC4=CC=C(C=C4)Cl
Procedure, shortened: as §1

[5] = compound: C1=CC2=C(C=CC(=C2)/C=C\3/C(=O)NC(=NCC4=CC=CS4)S3)N=C1
Procedure, shortened: as §1

[6] = compound: C1=CC2=NC=CN=C2C=C1/C=C/3\C(=O)NC(=O)S3
Procedure, shortened: as §1

[7] = compound: C1=CC=C(C=C1)C2=NC(=C(N2)C3=CC=NC=C3)C4=CC(=C(C=C4)Cl)O
Procedure, shortened: as §1

[8] = compound: C1=CC=C2C(=C1)C3=NNC4=CC=CC(=C43)C2=O
Procedure, shortened: as §1

[9] = compound: C1CCN(C1)C(=O)NC2=CC=CC(=C2)NC3=NC=C(C(=N3)NCCC4=CN=CN4)Br
Procedure, shortened: as §1

[10] = compound: C1CN(CCC1(CC2=CC=C(C=C2)Cl)N)C3=NC=NC4=C3C=CN4
Procedure, shortened: as §1

[11] = compound: C1COCCN1CCN2C3=CC=CC=C3N=C2NC(=O)C4=CC(=CC=C4)[N+](=O)[O-] [IRAK-1-4 Inhibitor I]
Procedure, shortened: as §1

[12] = compound: C=CC(=O)N1CCC[C@@H](n2nc(-c3ccc(Oc4ccccc4)cc3)c3c(N)ncnc32)C1 [ibrutinib]
Procedure, shortened: as §1

[13] = compound: CC(=O)c1cnc2ccc(-c3cc(Cl)c(O)c(Cl)c3)nc2c1N[C@H]1CC[C@H](CN(C)C)CC1
Procedure, shortened: as §1

[14] = compound: CC(C)(C)Cn1c(N)nc2ccc(-c3[nH]c(C(C)(C)C)nc3-c3ccc(F)cc3)nc21 [ralimetinib]
Procedure, shortened: as §1

[15] = compound: CC(C)(O)CC(=O)NCCn1ccc2ncnc(Nc3ccc(Oc4cccc(C(F)(F)F)c4)c(Cl)c3)c21
Procedure, shortened: as §1

[16] = compound: CC(C)C1=C2N=C(C=C(N2N=C1)NCC3=CC=CC=C3)NCCCCCCN
Procedure, shortened: as §1

[17] = compound: CC(C)C[C@@H](C=O)NC(=O)[C@H](CC(C)C)NC(=O)[C@H](CC(C)C)NC(=O)OCc1ccccc1
Procedure, shortened: as §1

[18] = compound: CC(C)N(C[C@H]1O[C@@H](n2cnc3c(N)ncnc32)[C@H](O)[C@@H]1O)[C@H]1C[C@@H](CCc2nc3cc(C(C)(C)C)ccc3[nH]2)C1 [pinometostat]
Procedure, shortened: as §1

[19] = compound: CC1=C(C2=C(C=C1)C(=O)C3=CC=CC=C3N2CCCN)C
Procedure, shortened: as §1

[20] = compound: CC1=C(C(CC(=O)N1)C2=CC=C(C=C2)C(F)(F)F)C(=O)NC3=C(C=C4C(=C3)C=NN4)F
Procedure, shortened: as §1

Measured: log2 fold change

IFRD2 isoform 2 (UniProt Q12894)
inactive: [1] 0.204 | [2] -0.109 | [3] 0.003 | [4] 0.084 | [5] 0.048 | [6] 0.082 | [7] -0.051 | [8] 0.118 | [9] 0.302 | [10] 0.04 | [11] 0.141 | [12] 0.063 | [13] 0.369 | [14] -0.045 | [15] 0.013 | [16] 0.07 | [17] 0.019 | [18] 0.144
active: [19] -1.69

INPP4A (UniProt Q96PE3)
inactive: [1] -0.007 | [2] 0.046 | [3] 0.051 | [4] 0.007 | [5] 0.019 | [6] 0.003 | [7] 0.114 | [8] -0.057 | [9] -0.057 | [10] 0.027 | [11] 0.034 | [12] 0.048 | [13] -0.008 | [14] 0.077 | [15] -0.026 | [16] 0.065 | [17] -0.025 | [18] -0.003 | [20] -0.092 | [19] 0.017

ISG15 (UniProt P05161)
inactive: [1] 0.046 | [2] -0.036 | [3] 0.093 | [4] -0.005 | [5] 0.126 | [6] 0.049 | [7] 0.074 | [8] -0.075 | [9] -0.07 | [10] 0.055 | [11] 0.02 | [12] -0.048 | [13] -0.028 | [14] 0.003 | [15] -0.15 | [16] -0.025 | [17] -0.039 | [18] 0.156 | [20] -0.059 | [19] 0

ISYNA1 (UniProt Q9NPH2)
inactive: [1] -0.012 | [2] 0.006 | [3] 0 | [4] 0.018 | [5] -0.003 | [6] -0.018 | [7] -0.02 | [8] 0.003 | [9] 0.047 | [10] 0.055 | [11] 0.015 | [12] -0.069 | [13] -0.026 | [14] -0.037 | [15] -0.007 | [16] 0.051 | [17] -0.012 | [18] -0.074 | [20] 0.074 | [19] 0.013

INTS10 (UniProt Q9NVR2)
inactive: [1] -0.018 | [2] 0.016 | [3] 0.024 | [4] 0.06 | [5] 0.044 | [6] 0.046 | [7] -0.028 | [8] 0.002 | [9] 0.015 | [10] 0.037 | [11] -0.022 | [12] -0.035 | [13] -0.104 | [14] -0.1 | [15] -0.055 | [16] -0.049 | [17] -0.087 | [18] -0.04 | [20] 0.022 | [19] 0.056

ISY1 isoform 1 (UniProt Q9ULR0)
inactive: [1] 0.007 | [2] -0.048 | [3] -0.049 | [4] 0.023 | [5] -0.005 | [6] 0.093 | [7] -0.118 | [8] -0.121 | [9] -0.012 | [10] 0.033 | [11] 0.038 | [12] 0.061 | [13] 0.141 | [14] -0.05 | [15] 0.041 | [16] 0.168 | [17] 0.039 | [18] -0.019 | [20] 0.037 | [19] 0.08

ITGAV (UniProt P06756)
inactive: [1] -0.005 | [2] -0.005 | [3] 0.026 | [4] 0.01 | [5] 0.024 | [6] 0 | [7] 0.014 | [8] -0.032 | [9] -0.001 | [10] 0.036 | [11] 0.057 | [12] 0.05 | [13] -0.024 | [14] -0.04 | [15] 0.02 | [16] 0.043 | [17] 0.029 | [18] 0.01 | [20] 0 | [19] 0.011

ITCH (UniProt Q96J02)
inactive: [1] 0.022 | [2] 0.097 | [3] -0.147 | [4] 0.044 | [5] 0.047 | [6] -0.023 | [7] 0.003 | [8] -0.043 | [9] -0.015 | [10] 0.012 | [11] -0.066 | [12] 0.056 | [13] -0.068 | [14] 0.061 | [15] 0.054 | [16] -0.072 | [17] 0.019 | [18] 0.002 | [20] -0.015 | [19] 0.103

ILF3 isoform 7 (UniProt Q12906)
inactive: [1] -0.068 | [2] -0.084 | [3] -0.266 | [4] -0.004 | [5] -0.049 | [6] 0.099 | [7] -0.061 | [8] -0.01 | [9] 0.054 | [10] -0.186 | [11] -0.098 | [12] 0.014 | [13] 0.172 | [14] 0.067 | [15] 0.086 | [16] 0.338 | [17] 0.001 | [18] 0.134 | [19] 0.218

ISOC2 (UniProt Q96AB3)
inactive: [1] -0.01 | [2] 0.03 | [3] 0.133 | [4] 0.079 | [5] 0.027 | [6] 0.003 | [7] 0.063 | [8] 0.096 | [9] -0.088 | [10] 0.049 | [11] -0.003 | [12] 0.092 | [13] -0.021 | [14] -0.004 | [15] -0.062 | [16] -0.055 | [17] -0.091 | [18] 0.041 | [20] 0.124 | [19] 0.055

2 neighbouring entries already listed, for reference:
INPP4A (UniProt Q96PE3)
inactive: [1] -0.007 | [2] 0.046 | [3] 0.051 | [4] 0.007 | [5] 0.019 | [6] 0.003 | [7] 0.114 | [8] -0.057 | [9] -0.057 | [10] 0.027 | [11] 0.034 | [12] 0.048 | [13] -0.008 | [14] 0.077 | [15] -0.026 | [16] 0.065 | [17] -0.025 | [18] -0.003 | [20] -0.092 | [19] 0.017

ISG15 (UniProt P05161)
inactive: [1] 0.046 | [2] -0.036 | [3] 0.093 | [4] -0.005 | [5] 0.126 | [6] 0.049 | [7] 0.074 | [8] -0.075 | [9] -0.07 | [10] 0.055 | [11] 0.02 | [12] -0.048 | [13] -0.028 | [14] 0.003 | [15] -0.15 | [16] -0.025 | [17] -0.039 | [18] 0.156 | [20] -0.059 | [19] 0

Further entries follow:

IPO4 isoform 2 (UniProt Q8TEX9)
inactive: [1] 0.011 | [2] 0.043 | [3] -0.038 | [4] -0.049 | [5] -0.016 | [6] 0.07 | [7] 0.085 | [8] -0.028 | [9] -0.062 | [10] -0.084 | [11] -0.051 | [12] -0.064 | [13] 0.085 | [14] 0.206 | [15] -0.07 | [16] -0.232 | [17] 0.07 | [18] 0.12 | [20] -0.03 | [19] 0.273

IQGAP1 (UniProt P46940)
inactive: [1] 0.024 | [2] 0.099 | [3] 0.052 | [4] -0.009 | [5] 0.009 | [6] 0.007 | [7] 0.014 | [8] 0.01 | [9] 0.001 | [10] -0.027 | [11] -0.01 | [12] -0.039 | [13] -0.131 | [14] -0.025 | [15] -0.116 | [16] -0.074 | [17] -0.004 | [18] -0.012 | [20] 0.001 | [19] -0.01

INTS7 (UniProt Q9NVH2)
inactive: [1] 0.39 | [2] 0.067 | [3] -0.016 | [4] 0.046 | [5] -0.175 | [6] 0.036 | [7] -0.081 | [8] 0.022 | [9] -0.091 | [10] -0.009 | [11] 0.021 | [12] -0.104 | [13] 0.029 | [14] 0.028 | [15] -0.085 | [16] -0.146 | [17] 0.077 | [18] -0.136 | [19] 0.048

IRAK4 (UniProt Q9NWZ3)
inactive: [1] 0.041 | [2] -0.009 | [3] 0.068 | [4] -0.038 | [5] 0.059 | [6] -0.023 | [7] 0.011 | [8] -0.004 | [9] 0.069 | [10] -0.074 | [11] -0.012 | [12] 0.002 | [13] 0.196 | [14] -0.014 | [15] -0.092 | [17] -0.026 | [18] 0.065 | [19] -0.002
active: [16] -0.252

IKBKG isoform 2 (UniProt Q9Y6K9)
inactive: [1] 0.013 | [2] -0.031 | [3] -0.013 | [4] -0.01 | [5] 0.036 | [6] 0.003 | [7] 0.048 | [8] -0.008 | [9] 0.028 | [10] -0.044 | [11] 0 | [12] -0.052 | [13] -0.05 | [14] 0.02 | [15] 0.052 | [16] 0.066 | [17] -0.029 | [18] -0.038 | [20] 0.018 | [19] -0.09

IKZF1 (UniProt Q13422)
inactive: [1] -0.005 | [2] -0.018 | [3] -0.008 | [4] 0.002 | [5] -0.015 | [6] 0.019 | [7] -0.069 | [8] 0.144 | [9] 0.051 | [10] 0 | [11] -0.017 | [12] 0.041 | [13] -0.069 | [14] -0.036 | [15] -0.015 | [16] -0.016 | [17] 0.011 | [18] 0.01 | [19] 0.275
